Values from PubChem BioAssay AID1159578 (Peter MacCallum Cancer Centre, 2015).
The whole screen tested about 18,000 reagents; below is a part drawn at random. In the full data, about 1,030 (5.7%) were called active. 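Inactive calls also include pools with fewer than 3300 nuclei, whose migration was not assessed.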 Raw values are not corrected between plates. Further read-outs or replicates are left out here.

Purpose: 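siRNA pools altering how lymphatic endothelial cells close a scratch wound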 (primary screen)
Cell system: human lymphatic endothelial cells
Knock-down reagent: siRNA pool against human genes, 40 nM
Time to read-out: 48 h after transfection
Measurement: 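Cells stained with dye and imaged after a scratch; covered wound area and nuclei counted, duplicates averaged, migration set against mock wells and turned into a robust z-score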
Reading the numbers: migration robust z-score: higher = faster migration into the scratch; nuclei per well: higher = more cells in the well
Active means: 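Migration changed when robust z exceeds 2 or falls below -2 and mean nuclei number is at least 3300; otherwise not called changed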
Meaning of the calls: active = migration changed; inactive = no migration change, or too few cells

gene knocked down	migration robust z-score	nuclei per well, duplicate mean	outcome
PCDHA10	-1.12	5186	inactive
PXMP4	0.46	5491	inactive
CAPN10	0.18	4942	inactive
VPS13A	0.54	5646	inactive
B3GALT4	-0.52	5590	inactive
WDFY2	2.02	6521	active
IFNGR1	-0.7	6462	inactive

Next part; the last 2 above are carried over.
gene knocked down	migration robust z-score	nuclei per well, duplicate mean	outcome
WDFY2	2.02	6521	active
IFNGR1	-0.7	6462	inactive
PROSER1	-0.77	4946	inactive
PIGC	-0.57	5490	inactive
AADAT	0	5745	inactive
ANXA2	-0.56	5180	inactive
SLC6A19	0.57	5710	inactive
RILP	-0.4	5404	inactive
ARSH	0.11	5763	inactive
PACC1	0.98	5402	inactive
TUBA3D	0.26	4855	inactive
SLC35D4	0.32	4848	inactive
ARF4	0.11	5518	inactive
IRF2BPL	1.07	4812	inactive
PPM1E	-1.92	4729	inactive
PCDHGA8	3.41	5858	active
CCDC172	0.86	5607	inactive
LRRC37B	-1.49	6666	inactive
